# Measurements taken from PubChem BioAssay AID588497 (NMMLSC, 2011).
# The campaign covered roughly 360,000 compounds. About 780 (0.22%) were called active. Inconclusive results, whose numbers are uncertain, are shown with a selection of clear calls. No stated cut-off is given here; in the data, active means inhibition above about 35% (passing the limit was not always enough); inconclusive means no clear call, values can overlap the other calls.
# Tested on: Botulinum neurotoxin type F light chain protease (Clostridium botulinum)
# Assay: BoNT/F light chain protease inhibitors, primary screen, biochemical, flow cytometry, MLPCN library (AID 588497); further: plate controls were buffer without enzyme for full effect and enzyme alone for no effect
# Details: Multiplex microsphere protease cleavage assay, at 10 µM, hits give high values
row,Structure (SMILES),inhibition
1,O=C(O)Cc1c(O)ccc2ccccc12,inconclusive: -10.3%
2,Cc1c(C(=O)N2CCN(S(=O)(=O)c3cc(F)ccc3F)CC2)oc2ccccc12,inactive: -5.1%
3,CC1CCCCN1Cc1c(O)ccc2c(=O)c(-c3ccccc3)coc12 (stereo not drawn),inconclusive: 7.5%
4,Cc1cnc(C(=O)OCC(=O)c2c[nH]c3ccccc23)cn1,inconclusive: -14.2%
5,COc1ccc(C(=O)CNc2cccc(F)c2)cc1,inconclusive: -23.2%
6,Cc1cc(C)n(CC(=O)NNC(=O)c2ccc(OC(F)(F)F)cc2)n1,inactive: 7.9%
7,CCOc1ccc(NC(=S)NC(=O)c2cncc(Br)c2)cc1,inconclusive: 60%
8,CCCCN(CCCNC(=O)CN1C(=O)COc2ccccc21)c1ccccc1,inconclusive: -4.6%
9,COC(=O)CC1C(=O)NCCN1C(=O)CSc1nnc(Nc2ccc(C)cc2)s1 (stereo not drawn),inconclusive: -11.6%
10,Nc1ccccc1C(=O)N1CCc2ccccc21,inconclusive: -5.3%
11,Cc1ccc(S(=O)(=O)NC2CC2)cc1,inactive: -2.1%
12,N[C@@H](Cc1ccccc1)c1nnc(SCc2ccccc2Cl)o1,inactive: -5.1%
13,CCc1nnc(NC(=O)CSc2nccn2-c2cccc(C)c2C)s1,inactive: -3%
14,CCCCCCN(C(=O)CCl)c1ccccc1,inconclusive: -5.6%
15,Cc1cc(C)cc(NC(=O)N2CCCN(c3c(Cl)cncc3Cl)CC2)c1,inconclusive: 114%
16,O=C(NCCc1ccccc1)C1CCC(=O)N1C1CCCC1 (stereo not drawn),inconclusive: -42.8%
17,COC(=O)c1cc(Cl)c(NC(=O)c2cc(OC)c(OC)c(OC)c2)cc1OC,inactive: 0.2%
18,CC(=O)N1c2ccc(S(=O)(=O)N3CCCCC3)cc2CC1C(=O)Nc1ccc(F)cc1C (stereo not drawn),inconclusive: 2.6%
19,COc1ccc(OC)c(S(=O)(=O)N2CCC3(CC2)OCCN3S(=O)(=O)c2ccccc2)c1,inconclusive: 8.1%
20,COc1cccc(NC(=O)CN(C)C(=O)c2ccc3ccccc3c2)c1,inactive: -4.9%
21,COC(=O)c1c(C)nn(-c2ccc(F)c(Cl)c2)c1-c1cc(C)on1,inconclusive: 65.9%
22,CN1CCCC(OC(=O)c2ccc(Cl)cc2)C1 (stereo not drawn),inconclusive: 20.6%
23,CSc1ccc(/C=C2\NC(=O)NC2=O)cc1,inconclusive: -83.9%
24,CCCNS(=O)(=O)c1ccc(OCC(=O)N2CCc3ccccc3C2)c(C)c1,inconclusive: 42.1%

row,Structure (SMILES),inhibition
1,CC(C)N(C1=CC(=O)OC12CCCCC2)C(C)C,inconclusive: 17.7%
2,COc1cc2nc(NC(=O)c3ccco3)sc(=O)c2cc1OC,inconclusive: 2.5%
3,Cc1ccc(OCc2nnc(SCC(=O)Nc3ccc4c(c3)OCO4)n2C)cc1,inactive: -14.4%
4,COc1cc(C(=O)NCC(=O)N2CCN(S(=O)(=O)c3ccccc3)CC2)cc(OC)c1OC,inconclusive: 3.4%
5,Cc1ccc(S(=O)(=O)Nc2cccc(C(=O)NCCCN3CCCC3=O)c2)cc1F,inconclusive: -2.2%
6,O=S(=O)(Cc1ccccc1)Oc1ccccc1,inconclusive: -2.1%
7,CCN(CC)CCN=CC1=C(O)CNC1=O,inconclusive: 37.2%
8,Cn1cc(Cl)c(C(=O)N2CCN(c3ncccn3)CC2)n1,inconclusive: -11.1%
9,Cc1nc2ccccc2c(=O)n1-c1cc([N+](=O)[O-])cc([N+](=O)[O-])c1,inconclusive: 2.9%
10,COC(=O)C1(CCSC)NC(c2ccc(OC)cc2OC)C2C(=O)N(c3cccc(C(C)=O)c3)C(=O)C21 (stereo not drawn),inconclusive: 5%
11,CC1CC(=O)NN=C1c1cccs1 (stereo not drawn),inconclusive: -28.6%
12,Cc1ccc(NC(=S)NNC(=S)Nc2cccc(C(F)(F)F)c2)cc1,inconclusive: -4.4%
13,CCOc1ccc(N2C(=O)CC(=O)NC2=O)cc1,inconclusive: 11.8%
14,CC1CCN(c2ccc(NC(=O)c3ccc(Br)o3)cc2)CC1,inactive: -9.6%
15,CCCCn1c(N)c(N(CCOC)C(=O)C2CCN(S(=O)(=O)c3ccccc3)CC2)c(=O)[nH]c1=O,inconclusive: -10.6%
16,CCC(C)NC(=O)C1CC(=O)N(CCc2ccc(F)cc2)C1 (stereo not drawn),inactive: -1.4%
17,CCc1ccc(NC(=O)NCCN2CCCCC2)cc1,inconclusive: -8.7%
18,C=CCn1c(SCCOc2ccccc2)nnc1C(C)NC(=O)c1ccccc1 (stereo not drawn),inactive: -7.5%
19,CNC(=O)C(=O)Nc1ccc2c(c1)N(S(=O)(=O)c1cccs1)CCC2,inconclusive: -6.3%
20,O=C(Cn1c(C(=O)OCCO)cc2ccccc21)c1ccccc1,inconclusive: -5.4%
21,CCOC(=O)C1=C(N)Oc2c(c(=O)[nH]c3ccccc23)C1c1ccccc1 (stereo not drawn),inactive: 4.7%
22,CCN1C(=O)c2ccccc2Sc2ccc(C(=O)NCCC(C)C)cc21,inconclusive: -20.6%
23,COc1cc(C2C(C#N)=C(N)N(N(C)C)C3=C2C(=O)CC(C)(C)C3)cc(OC)c1OC (stereo not drawn),inconclusive: -32.5%
24,CN(C)c1cccc2c1c(NC(=O)Nc1ccccc1)nn2C,inconclusive: -54.9%

row,Structure (SMILES),inhibition
1,CCNS(=O)(=O)c1ccc(NC(=S)N2CCc3ccccc32)cc1,inactive: -9.3%
2,COc1cc(/C=C2\SC(=S)N(CCC(=O)Nc3ccccc3O)C2=O)cc(OC)c1OC,inconclusive: -29.7%
3,Cc1cc(C)cc(NC(=O)C(C)N2C(=O)c3ccccc3C2=O)c1 (stereo not drawn),inconclusive: -26%
4,O=[N+]([O-])c1ccc(OCC2CC(c3ccccc3)=NO2)cc1 (stereo not drawn),inconclusive: -4.7%
5,CCCCC(=O)NC(c1ccccc1Cl)c1ccc2cccnc2c1O (stereo not drawn),inconclusive: 37.8%
6,Clc1ccc(N2CCN(Cc3ccc(Br)o3)CC2)cc1,inconclusive: -32.7%
7,Cc1ccc(-n2nc3c(c2NC(=O)c2ccco2)CS(=O)C3)c(C)c1 (stereo not drawn),inconclusive: -15.6%
8,CC(C)C[C@H](N)c1nnc(SCc2ccc(Cl)cc2)o1,inconclusive: 20.7%
9,Cc1ccc(CNC(=O)C2CCN(S(=O)(=O)c3ccc4c(c3)CC(C)N4C(=O)C3CCC3)CC2)o1 (stereo not drawn),inactive: -8.3%
10,NS(=O)(=O)c1ccc(NCc2c(F)cccc2Cl)cc1,active: 45.7%
11,COc1ccc(-c2cc(-c3ccc(Cl)cc3)c(C#N)c(SCC(=O)O)n2)cc1,inconclusive: 21.3%
12,C/C(CC(=O)Nc1ccc([N+](=O)[O-])cc1)=N/NC(=O)C1CC12CCC2 (stereo not drawn),inactive: 3.5%
13,CCOC(=O)c1c(CN2CCOCC2)n(-c2ccccc2)c2cc(Br)c(O)cc12,inconclusive: -13.6%
14,O=C(CC1C=Cc2ccccc2N1C(=O)c1ccccc1)c1ccccc1 (stereo not drawn),inconclusive: 12.1%
15,COc1ccc(NC(=O)c2cn(CCC#N)nc2-c2ccc(OC)c(OC)c2)cc1,inconclusive: 2.5%
16,CCN1CSC(=S)N(Cc2ccccc2)C1,inconclusive: 9.9%
17,COc1ccc(CNC(=O)c2ccc3ccccc3n2)cc1,inconclusive: -26.2%
18,COC(=O)/C(=N/Nc1ccccc1OC)N1CCCc2ccccc21,inconclusive: 43.9%
19,O=C(NCc1ccccc1)c1c(O)c2ccccc2[nH]c1=O,inconclusive: 23.6%
20,CC(=O)NC1CC2CCCC(C1)N2C(=O)Nc1ccccc1C (stereo not drawn),inconclusive: 14%
21,O=c1nc2n(CCO)c3ccccc3cc-2c(=O)[nH]1,inactive: 1.9%
22,CC(C)Oc1cccc(C2NC(=O)c3ccccc3O2)c1 (stereo not drawn),inconclusive: -1.7%
23,Nc1ccccc1SCC(=O)Nc1cccc2ccccc12,inconclusive: 22.1%
24,C=CCOc1ccc(C(=O)Nc2ncn[nH]2)cc1,inconclusive: -14.8%

# Reprinted from the results shown, 3 compounds:
row,Structure (SMILES),inhibition
7,Cc1ccc(-n2nc3c(c2NC(=O)c2ccco2)CS(=O)C3)c(C)c1 (stereo not drawn),inconclusive: -15.6%
8,CC(C)C[C@H](N)c1nnc(SCc2ccc(Cl)cc2)o1,inconclusive: 20.7%
9,Cc1ccc(CNC(=O)C2CCN(S(=O)(=O)c3ccc4c(c3)CC(C)N4C(=O)C3CCC3)CC2)o1 (stereo not drawn),inactive: -8.3%

# Following part

row,Structure (SMILES),inhibition
1,CC(=O)Nc1sc(NC(=O)c2ccc([N+](=O)[O-])cc2)nc1-c1cccs1,inconclusive: 23.5%
2,Clc1ccc(Cn2c(-c3cccnc3Cl)nc3ccccc32)cc1,inactive: -0.3%
3,Cc1ccc(C(=O)CNc2ccc(C)cc2C)cc1,inconclusive: 16%
4,CS(=O)(=O)NC1c2cccc3cccc(c23)C1N1CCOCC1 (stereo not drawn),inactive: -3.2%
5,CCOc1ccc2nc(NC(=O)CN3CCN(CC)CC3)sc2c1,inconclusive: -18.5%
6,O=S(=O)([O-])CCC[n+]1ccc(Oc2ccccc2)cc1,inconclusive: 17.2%
7,CC(=O)N1CCN(S(=O)(=O)c2ccc(C)cc2)C1C (stereo not drawn),inconclusive: -102%
8,COC(=O)c1ccc(C(=O)NN)cc1,inconclusive: -32.6%
9,COc1ccc(C(=O)c2nc3c(n2O)CCCC3)cc1OC,inactive: -21%
10,O=P(CCc1ccccc1)(c1ccccc1)c1ccccc1,inactive: -5.4%
11,CSCC(=O)NC1CCCc2c1cnn2-c1ccc(C)c(C)c1 (stereo not drawn),inconclusive: -24.8%
12,CC(C)COC(=O)N(C)C[C@@H]1OCc2cnnn2CCCC(=O)N([C@@H](C)CO)C[C@H]1C,inactive: 1.9%
13,COc1ccc2nc(-c3ccccn3)[nH]c2c1,inconclusive: 10.4%
14,COc1ccc(C2(CNC(=O)CCC(=O)O)CCCC2)cc1,inconclusive: -15.3%
15,COc1ccc(NC(=O)/C(C#N)=C/c2ncc([N+](=O)[O-])n2C)c(OC)c1,inconclusive: 11%
16,CCc1ccc2[nH]c3nc(N/N=C/c4cccc(O)c4)nnc3c2c1,inconclusive: 1.1%
17,Cc1[nH]c(=O)[nH]c(=O)c1S(=O)(=O)Nc1ccc(S(N)(=O)=O)cc1,inconclusive: 9.2%
18,O=C(c1ncc[nH]1)c1cccs1,inconclusive: -3.7%
19,CC(C)(C)C(=O)Nc1ccccc1-c1nc2ccccc2[nH]c1=O,inconclusive: -55.7%
20,CCCCOc1ccc(Cl)cc1CSc1n[nH]c(C)n1,inactive: -2.9%
21,CCOC(=O)C(CCCCP(=O)(c1ccccc1)c1ccccc1)(NC(C)=O)C(=O)OCC,inconclusive: -26%
